Percent effect of library compounds

By UniProt entry, the sequences of proteins in these tests, tags left out. Residues count along the entry.
UniProt I6X8D2, whole entry: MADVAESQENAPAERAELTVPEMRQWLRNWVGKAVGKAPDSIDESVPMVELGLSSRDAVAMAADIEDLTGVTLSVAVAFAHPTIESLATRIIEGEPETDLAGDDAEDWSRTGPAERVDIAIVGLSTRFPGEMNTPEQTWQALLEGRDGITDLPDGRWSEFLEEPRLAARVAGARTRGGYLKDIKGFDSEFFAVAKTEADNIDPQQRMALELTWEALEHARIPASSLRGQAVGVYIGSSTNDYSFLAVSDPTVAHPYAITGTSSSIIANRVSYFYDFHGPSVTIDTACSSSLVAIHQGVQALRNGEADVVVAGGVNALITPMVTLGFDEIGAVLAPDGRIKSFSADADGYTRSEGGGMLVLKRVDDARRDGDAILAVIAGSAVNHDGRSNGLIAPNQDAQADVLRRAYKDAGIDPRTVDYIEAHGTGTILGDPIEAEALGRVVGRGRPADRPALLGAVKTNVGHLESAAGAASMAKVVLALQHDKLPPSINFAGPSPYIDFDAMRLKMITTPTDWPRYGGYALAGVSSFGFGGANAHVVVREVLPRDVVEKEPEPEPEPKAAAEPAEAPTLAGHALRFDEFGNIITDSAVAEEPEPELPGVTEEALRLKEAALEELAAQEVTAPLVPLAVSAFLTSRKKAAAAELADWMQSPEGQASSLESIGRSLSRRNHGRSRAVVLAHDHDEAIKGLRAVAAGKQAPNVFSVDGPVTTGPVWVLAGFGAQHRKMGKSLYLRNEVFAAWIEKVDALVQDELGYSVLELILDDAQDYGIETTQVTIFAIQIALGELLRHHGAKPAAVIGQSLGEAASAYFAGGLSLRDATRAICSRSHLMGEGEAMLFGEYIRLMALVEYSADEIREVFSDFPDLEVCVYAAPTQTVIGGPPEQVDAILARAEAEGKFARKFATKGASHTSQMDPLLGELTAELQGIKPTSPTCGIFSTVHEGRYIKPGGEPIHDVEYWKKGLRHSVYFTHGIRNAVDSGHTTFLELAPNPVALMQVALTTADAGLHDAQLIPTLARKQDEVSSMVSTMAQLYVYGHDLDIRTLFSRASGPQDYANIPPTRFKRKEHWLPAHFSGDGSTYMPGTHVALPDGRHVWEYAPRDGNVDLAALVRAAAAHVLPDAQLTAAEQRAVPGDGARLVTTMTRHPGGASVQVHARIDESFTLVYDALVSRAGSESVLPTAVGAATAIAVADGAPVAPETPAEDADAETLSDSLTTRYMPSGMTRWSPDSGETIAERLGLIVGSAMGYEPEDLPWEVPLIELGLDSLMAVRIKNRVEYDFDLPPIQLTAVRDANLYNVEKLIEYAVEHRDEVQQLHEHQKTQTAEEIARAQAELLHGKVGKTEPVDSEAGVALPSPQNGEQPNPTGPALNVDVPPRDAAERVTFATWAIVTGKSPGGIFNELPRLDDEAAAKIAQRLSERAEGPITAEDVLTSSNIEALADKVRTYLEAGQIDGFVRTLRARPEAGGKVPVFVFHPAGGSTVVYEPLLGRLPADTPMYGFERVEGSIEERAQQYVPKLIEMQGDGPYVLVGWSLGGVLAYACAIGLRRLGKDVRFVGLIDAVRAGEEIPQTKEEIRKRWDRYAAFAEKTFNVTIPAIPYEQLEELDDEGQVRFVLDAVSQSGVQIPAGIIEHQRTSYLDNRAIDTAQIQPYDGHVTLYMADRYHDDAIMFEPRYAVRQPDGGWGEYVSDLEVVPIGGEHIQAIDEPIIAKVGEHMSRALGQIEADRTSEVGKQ
UniProt Q4DA54, 1-478: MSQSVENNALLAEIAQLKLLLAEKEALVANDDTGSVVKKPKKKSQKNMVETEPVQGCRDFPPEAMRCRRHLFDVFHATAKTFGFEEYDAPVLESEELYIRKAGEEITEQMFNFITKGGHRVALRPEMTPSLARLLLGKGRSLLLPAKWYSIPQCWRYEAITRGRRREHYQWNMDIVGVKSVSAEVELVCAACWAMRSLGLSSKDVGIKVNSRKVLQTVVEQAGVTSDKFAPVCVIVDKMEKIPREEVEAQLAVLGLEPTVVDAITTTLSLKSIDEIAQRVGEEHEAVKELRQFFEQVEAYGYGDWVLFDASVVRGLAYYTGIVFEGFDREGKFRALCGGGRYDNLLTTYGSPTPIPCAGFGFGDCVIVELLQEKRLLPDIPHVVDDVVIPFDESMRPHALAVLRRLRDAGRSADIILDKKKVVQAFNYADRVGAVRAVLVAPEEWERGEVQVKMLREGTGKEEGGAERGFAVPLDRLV
UniProt P9WPC5, whole entry: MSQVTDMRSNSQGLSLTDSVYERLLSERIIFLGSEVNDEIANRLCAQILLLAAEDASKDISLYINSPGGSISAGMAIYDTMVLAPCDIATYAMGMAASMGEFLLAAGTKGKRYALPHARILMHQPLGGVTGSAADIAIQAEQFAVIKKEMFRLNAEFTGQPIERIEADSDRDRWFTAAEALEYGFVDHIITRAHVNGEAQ
UniProt P9WPC3, whole entry partner: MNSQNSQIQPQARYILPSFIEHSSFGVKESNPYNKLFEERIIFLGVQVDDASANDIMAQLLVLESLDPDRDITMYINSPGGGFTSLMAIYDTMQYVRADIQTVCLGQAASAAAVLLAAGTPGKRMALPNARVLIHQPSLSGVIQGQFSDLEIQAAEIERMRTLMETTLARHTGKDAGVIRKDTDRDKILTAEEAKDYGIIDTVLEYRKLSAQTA
UniProt A4I591, 1-473: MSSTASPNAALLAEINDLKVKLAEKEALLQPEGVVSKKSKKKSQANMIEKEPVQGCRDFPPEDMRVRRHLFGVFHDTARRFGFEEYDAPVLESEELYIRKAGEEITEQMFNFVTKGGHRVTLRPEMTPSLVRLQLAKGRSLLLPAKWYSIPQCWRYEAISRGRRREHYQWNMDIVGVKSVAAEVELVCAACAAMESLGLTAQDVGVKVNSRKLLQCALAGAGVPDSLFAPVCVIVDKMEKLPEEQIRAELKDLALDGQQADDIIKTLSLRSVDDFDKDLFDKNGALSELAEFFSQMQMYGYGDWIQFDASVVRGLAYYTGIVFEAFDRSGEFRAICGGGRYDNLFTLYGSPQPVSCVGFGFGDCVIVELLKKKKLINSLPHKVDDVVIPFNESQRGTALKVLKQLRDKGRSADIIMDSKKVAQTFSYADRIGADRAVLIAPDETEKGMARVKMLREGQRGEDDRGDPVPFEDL

Pks13 thioesterase: 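Polyketide synthase Pks13, Mycobacterium tuberculosis (UniProt I6X8D2). Enzyme assay of the thioesterase domain of polyketide synthase 13; the read-out is not stated. Tested at 30 µM. The record gives no direction; the compounds picked for IC50 retests had high values, so higher reads as stronger inhibition. Size under these conditions: about 67,000 compounds, about 300 of them at 50% or above in at least one test.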
TcHisRS: 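Histidine-tRNA ligase, Trypanosoma cruzi CL Brener (UniProt Q4DA54). Enzyme assay of histidyl-tRNA synthetase; the read-out is not stated. Concentration: 30 µM. Higher reads as stronger inhibition (inferred: compounds with an IC50 in retests scored well above the rest). Size under these conditions: about 69,000 compounds, about 31 of them at 50% or above in at least one test.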
ClpP1P2: 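Protease assay of ClpP1P2, read by the AMC dye that it sets free. Target: ClpP1P2, Mycobacterium tuberculosis (UniProt P9WPC5 and UniProt P9WPC3). Compounds at 50 µM. Higher reads as stronger inhibition, judged from the few compounds that gave an IC50. Most other retested compounds had strongly negative values. Size under these conditions: about 69,000 compounds, about 10 of them at 50% or above in at least one test.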
Leishmania in macrophages: 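Cell assay of Leishmania donovani living inside macrophages; the read-out is not stated. Compounds at 30 µM. Higher reads as stronger inhibition (inferred: compounds with an IC50 in retests scored well above the rest). About 69,000 compounds were tested under these conditions; 1.5% (about 1,000) showed 50% or more at least once.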
LiHisRS: 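Enzyme assay of histidyl-tRNA synthetase; the read-out is not stated. Target: Histidine-tRNA ligase, Leishmania infantum (UniProt A4I591). Compounds at 30 µM. Higher reads as stronger inhibition (inferred: compounds with an IC50 in retests scored well above the rest). The assay is labelled LdHisRS but filed under L. infantum. About 69,000 compounds were tested under these conditions; 0.6% (about 410) showed 50% or more at least once.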

Each number is a percent effect as filed. The record does not define 0% and 100%; most values in the screen are far below 50% and negative numbers occur (in some assays of this library far below -100). Compounds were drawn at random from those tested, without regard to their results. Two or more numbers in one place are separate tests of the same structure; such repeats can differ widely. A dash means the value is not listed here; it may have been measured.

| # | structure | Pks13 thioesterase | TcHisRS | ClpP1P2 | Leishmania in macrophages | LiHisRS |
|---|---|---|---|---|---|---|
| 1 | `COc1nc(C)c(C(=O)NCc2cc(N3CCOCC3)ncn2)s1` | -11.33% | 7.595% | -13.19% | -27.95% | 10.42% |
| 2 | `COc1ncccc1C(=O)N1CCc2c(ncnc2N2CCOCC2)C1` | -20.01% | 6.349% | -3.48% | 8.175% | 6.061% |
| 3 | `CC(NCc1ccccc1Cl)c1ccc(OCC(=O)NC2CC2)cc1` (stereo not shown) | -15.96% | 2.817% | 5.182% | 33.2% | 9.565% |
| 4 | `O=C(O)C(F)(F)F.O=C(c1cscn1)N1CCCC2(CCN2Cc2cccc(F)c2)C1` (stereo not shown) | - | - | - | 40.36% | - |
| 5 | `CC(C)c1nccn1CCCNC(=O)c1ccc(-c2cccnc2)nc1` | -15.06% | 0% | 10.3% | 8.333% | 21.21% |
| 6 | `Cc1oncc1C(=O)N1CC[C@H]2[C@H](C[C@@H](CN3CCCC3)N2C)C1` | 4.138% | 9.497% | -4.329% | - | 7.692% |
| 7 | `CC(C)CC(C)(CNC(=O)c1cnccn1)NC(=O)c1cnccn1` (stereo not shown) | -27.32% | -1.02% | -5.236% | 12.96% | 11.43% |
| 8 | `CCCc1nnsc1C(=O)N1CCN(CC(C)O)CC1` (stereo not shown) | -3.634% | 6.186% | 3.641% | - | 10.43% |
| 9 | `O=C(c1ccccc1-n1cccn1)N1CCCN(c2cccnn2)CC1` | -15.14% | -0.3774% | 10% | -15.01% | 10.67% |
| 10 | `CC(=O)N1CCC(Cc2cnc(-c3c(C)nn(C)c3C)cn2)CC1` | 6.795% | 5.639% | -18.21% | 10.83% | 7.092% |
| 11 | `Cc1ncc(CNC(=O)c2oc3ccccc3c2CN(C)C)s1` | -33.61% | 6.358% | -0.7139% | 29.49% | 9.333% |
| 12 | `CN1CCc2nc(C3CCCN(S(=O)(=O)N4CCCC4)C3)ncc2C1` (stereo not shown) | -4.277% | 22.73% | -2.104% | 37.39% | 36.62% |
| 13 | `CN1CCN(S(=O)(=O)NCC2COc3ccccc3C2)CC1` (stereo not shown) | -24.52% | 1.345% | -19.6% | -2.747% | 24.71% |
| 14 | `Cc1nc2c(c(=O)n1C)CN(C(=O)C1CCCN(C(=O)N(C)C)C1)C2` (stereo not shown) | -10.18% | 2.128% | -5.189% | -7.649% | 0% |
| 15 | `COc1cccc(CN(Cc2ccco2)Cc2[nH]cnc2C)c1.O=C(O)CC(O)(CC(=O)O)C(=O)O` | - | - | - | -45.37% | - |
| 16 | `CC(C)(O)CN1CCN(C(=O)C2CSc3ccccc3O2)CC1` (stereo not shown) | -33.62% | 3.922% | -1.446% | 17.4% | 11.67% |
| 17 | `Cc1cc(NCCC(=O)NC(C)C)nc(-c2ccncc2)n1` | -27.04% | 0% | -2.392% | 26.7% | 17.7% |
| 18 | `O=C(O)[C@@]12CN(c3cnccn3)C[C@@H]1CN(C1CCCC1)C2` | -1.121% | 9.74% | -8.611% | - | 20.97% |
| 19 | `Cc1cc(CC(C)Nc2ncnc3cccc(F)c23)[nH]n1` (stereo not shown) | -13.86% | 7.143% | 1.263% | 6.483% | 8.065% |
| 20 | `NC(=O)c1ccccc1-n1cc(-c2cccc(C(=O)O)c2)cn1` | 61.53% | 3.911% | -0.8617% | 11.9% | 52.63% |
| 21 | `FC1(F)CCN(Cc2ccncc2)CC12CCN(Cc1ccccn1)C2` (stereo not shown) | -21.8% | 4.972% | 0.5987% | - | 1.504% |
| 22 | `O=C(O)C(F)(F)F.O=C(O)C(F)(F)F.O=C1CC2(CCN(Cc3cccnc3)C2)CN1c1ccc2c(c1)OCO2` (stereo not shown) | - | - | - | 23.01% | - |
| 23 | `COCCN1C[C@H](OCc2csc(C)n2)[C@H]2COC[C@H]21` | -12.83% | 3.509% | -13.24% | - | 16.13% |
| 24 | `Cc1ccc(C)c(CSc2nnc(C(N)Cc3ccccc3)o2)c1` (stereo not shown) | 5.098% | 18.81% | -20.45% | - | 19.57% |
| 25 | `CN(C)C(CNC(=O)NCCS(C)(=O)=O)c1ccco1` (stereo not shown) | -16.42% | -13.25% | -8.747% | 0.2138% & 37.08% | 20.51% |
| 26 | `O=C(C1CCCC1)N1CCN(Cc2ccncc2)[C@@H]2CS(=O)(=O)C[C@@H]21` | -32.03% | 5.941% | -1.401% | - | 26.03% |
| 27 | `CC(C)(C(=O)NCC(N)=O)c1ccccc1F` | -3.194% | 4.065% | -12.44% | -8.167% | 12.5% |
| 28 | `Cc1nc(N)c2ccc(C3CCCCN3)nc2n1` (stereo not shown) | 4.366% | 2.273% | -8.589% | - | 8.451% |
| 29 | `COCCC1COC2(CCN(C(=O)c3cccn3C)CC2)C1` (stereo not shown) | 9.405% | 0% | -8.856% | -10.93% | 6% |
| 30 | `c1csc(N2CCCN(c3nccn4cnnc34)CC2)n1` | -0.4308% | 4.972% | -6.592% | -40.94% | 9.639% |
| 31 | `CC(C)C1CN(C(=O)c2cccs2)CCS1` (stereo not shown) | -23.25% | 4.167% | -9.421% | -17.12% | 7.527% |
| 32 | `Cc1nc(C)n(CC2CCCCN2c2ncnc3ccsc23)n1` (stereo not shown) | 4.532% | 3.152% | -5.655% | 27.23% | 10.53% |
| 33 | `CCn1nc(C)c(-c2cncn2Cc2ccccc2CN(C)C)c1C.Cl` | - | - | - | 43.86% | - |
| 34 | `O=C(O)C(F)(F)F.[H][C@@]12CN(Cc3ccccc3F)C[C@H](C(=O)N3CCCO3)[C@]1([H])CCO2` | - | - | - | -16.04% | - |
| 35 | `COCC1c2c(cnn2C)CCN1Cc1ccc(F)cc1.O=C(O)C(F)(F)F.O=C(O)C(F)(F)F` (stereo not shown) | - | - | - | -3.444% | - |
| 36 | `[H][C@@]12CCN(C(=O)c3cc(C)[nH]c3C)C[C@@]1([H])O[C@@H](c1ccncn1)C2` | - | - | - | 8.408% | - |
| 37 | `CS(=O)(=O)NC1CCN(C(=O)NCC2CCCO2)CC1` (stereo not shown) | -0.3514% | 7.937% | 14.79% | 10.99% | 10.96% |
| 38 | `CCn1nc(CC(C)C)cc1C(=O)N1CCC2(CC1)[C@H](O)C[C@@H]2O` | -24.44% | 3.261% | -1.731% | -3.778% | 18.18% |
| 39 | `COc1cccc(CNCc2nnc3n2CC(C(F)(F)F)CC3)c1` (stereo not shown) | -20.78% | -3.39% | 11.64% | 10.32% | 15.09% |
| 40 | `O=C(O)C(F)(F)F.O=C(O)C(F)(F)F.[H][C@@]12CCN(C(=O)c3cnccn3)C[C@]1([H])[C@@H](CN1CCN(C)CC1)OC2` | - | - | - | 15.4% | - |
| 41 | `O=C(O)C(F)(F)F.[H][C@@]12CCCO[C@]1([H])[C@H](N(C)Cc1ccco1)CN(C(=O)c1ccnnc1)C2` | - | - | - | 9.59% | - |
| 42 | `NC(=O)CN1CCC(NC(=O)COCCOc2ccccc2)CC1` | -14.09% | 8.808% | 15.53% | 47.37% | 23.6% |
| 43 | `CC(CNC(=O)c1cc(Cl)ccc1F)N1CCCC1` (stereo not shown) | -10.18% | 0% | -14.88% | 9.169% | 2.041% |
| 44 | `Cc1cc(CNC(=O)C2CCC(=O)N(Cc3ccccc3F)C2)on1` (stereo not shown) | -2.887% | -5.797% | -33.51% | 8.109% | 7.5% |
| 45 | `Cn1cnc(S(=O)(=O)NCCCN2CCCCCC2)c1Cl` | 26.12% | -1.504% | 1.906% | 1.486% | 21.43% |
| 46 | `CC(C)N1CCC(CC(=O)NCC2OCCc3ccccc32)CC1` (stereo not shown) | -21.34% | 13.69% | 5.959% | 14.06% | 20.43% |
| 47 | `CC(C)N(C)CCCNC(=O)c1cnn(C(C)(C)C)c1C(F)(F)F` | - | 0.9804% | -2.652% | 10.25% | 5% |
| 48 | `Cc1ccc(CN2CCc3ncnc(-c4cccnc4)c3CC2)o1.O=C(O)C(F)(F)F.O=C(O)C(F)(F)F` | - | - | - | -2.305% | - |
| 49 | `CC(=O)NCC(=O)N1CCn2cc(CN3CCN(C)CC3)nc2C1` | - | 3.347% | 3.416% | - | 19.81% |
| 50 | `COc1cccc(CCC(=O)N2CCN(Cc3noc(C)n3)CC2)c1` | 8.585% | -2.326% | 4.982% | 32.85% | 8.197% |
| 51 | `Cc1ncc2c(n1)CCN(Cc1nc(Cc3ccccc3)no1)C2` | 1.356% | 13.25% | 2.106% | 18.66% | 16% |
| 52 | `O=C(O)C(F)(F)F.[H][C@]12CCN(C(=O)Cc3cccc(OC)c3)CC[C@@]1([H])S(=O)(=O)CCN2C` | - | - | - | 20.07% | - |
| 53 | `Cc1noc(C)c1C(=O)N1CCOC2(COCCN(C(C)C)C2)C1` (stereo not shown) | -13.77% | 1.105% | -16.86% | - | 2.703% |
| 54 | `Cn1cc(C2CC(=O)NC23CCN(C(=O)c2cccnc2)CC3)cn1.O=C(O)C(F)(F)F` (stereo not shown) | - | - | - | 56.16% | - |
| 55 | `CC(C)N1CCc2ncn(C)c2C1C(=O)N1CCOCC1` (stereo not shown) | -21.51% | 0% | 12.87% | - | 10.92% |
| 56 | `O=C(O)C(F)(F)F.O=C(c1cnccn1)N1CCc2ncnc(-c3cccnc3)c2CC1` | - | - | - | 9.491% | - |
| 57 | `[H][C@]12CCC(=O)N(c3cccnc3)[C@@]1([H])CCN2C(=O)c1cccs1` | - | - | - | -14.6% | - |
| 58 | `O=C1CC(c2ccncc2)C2(CCN(Cc3ccc(F)cc3)CC2)N1` (stereo not shown) | -1.396% | 4.132% | 5.693% | - | 16.36% |
| 59 | `CN1C(=O)CCc2cc(NC(=O)C3CC(=O)N(CC4CC4)C3)ccc21` (stereo not shown) | -7.525% | 5.752% | -5.284% | 5.521% | 25.66% |

The first 7 entries again:

{"structure": "COc1nc(C)c(C(=O)NCc2cc(N3CCOCC3)ncn2)s1", "Pks13 thioesterase": -11.33, "TcHisRS": 7.595, "ClpP1P2": -13.19, "Leishmania in macrophages": -27.95, "LiHisRS": 10.42}
{"structure": "COc1ncccc1C(=O)N1CCc2c(ncnc2N2CCOCC2)C1", "Pks13 thioesterase": -20.01, "TcHisRS": 6.349, "ClpP1P2": -3.48, "Leishmania in macrophages": 8.175, "LiHisRS": 6.061}
{"structure": "CC(NCc1ccccc1Cl)c1ccc(OCC(=O)NC2CC2)cc1", "stereo": "stereo not shown", "Pks13 thioesterase": -15.96, "TcHisRS": 2.817, "ClpP1P2": 5.182, "Leishmania in macrophages": 33.2, "LiHisRS": 9.565}
{"structure": "O=C(O)C(F)(F)F.O=C(c1cscn1)N1CCCC2(CCN2Cc2cccc(F)c2)C1", "stereo": "stereo not shown", "Leishmania in macrophages": 40.36}
{"structure": "CC(C)c1nccn1CCCNC(=O)c1ccc(-c2cccnc2)nc1", "Pks13 thioesterase": -15.06, "TcHisRS": 0, "ClpP1P2": 10.3, "Leishmania in macrophages": 8.333, "LiHisRS": 21.21}
{"structure": "Cc1oncc1C(=O)N1CC[C@H]2[C@H](C[C@@H](CN3CCCC3)N2C)C1", "Pks13 thioesterase": 4.138, "TcHisRS": 9.497, "ClpP1P2": -4.329, "LiHisRS": 7.692}
{"structure": "CC(C)CC(C)(CNC(=O)c1cnccn1)NC(=O)c1cnccn1", "stereo": "stereo not shown", "Pks13 thioesterase": -27.32, "TcHisRS": -1.02, "ClpP1P2": -5.236, "Leishmania in macrophages": 12.96, "LiHisRS": 11.43}

From ChEMBL document CHEMBL3988442, “University of Dundee, Small-Polar-MMV Screening Library” (2021).